Taken from: PubChem BioAssay AID1259405 (NCATS, 2018)

- Assay: 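Knock-downs that lift recombinant protein yield in hamster ovary cells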 (primary screen)
- Cells: Chinese hamster CHO-K1 ovary cells with stable secreted eGFP expression
- Knock-down reagent: single siRNA against mouse genes, 0.8 pmol siRNA per well (2 µl of 400 nM stock)
- Time to read-out: 3 days
- Measurement: 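Per-well intracellular GFP measured by laser scanning cytometry, plus viability from ATP luminescence, each relative to plate median of non-targeting control wells, in %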
- Direction: GFP, % of control: higher = more GFP per well, higher productivity; viability (ATP), % of control: higher = more viable cells (more ATP)
- Rule for the call: 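Called active when intracellular GFP, relative to negative control, is at or above 120%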
The whole screen tested about 50,000 reagents; below is a random part of them. About 4,000 of them (8%) were called active. 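Mouse siRNA library applied to hamster cells; one well for each siRNA.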

Against Cox7c (cytochrome c oxidase subunit 7C) [SID363568929] the deposit lists GFP, % of control 138; viability (ATP), % of control 116; active.
Cox7c (cytochrome c oxidase subunit 7C) [SID363576321] gave GFP, % of control 46.1; viability (ATP), % of control 48.3; inactive.
With knock-down of Cox7c (cytochrome c oxidase subunit 7C) [SID363579137], the screen gave GFP, % of control 78.9; viability (ATP), % of control 65.1; inactive.
For Adprs (ADP-ribosylserine hydrolase) [SID363545704], the entry reads GFP, % of control 82.7; viability (ATP), % of control 68.4; inactive.
With knock-down of Adprs (ADP-ribosylserine hydrolase) [SID363549217], the record shows GFP, % of control 56.7; viability (ATP), % of control 85.8; inactive.
For Adprs (ADP-ribosylserine hydrolase) [SID363563023] the deposit lists GFP, % of control 57.7; viability (ATP), % of control 75.2; inactive.
Armc7 (armadillo repeat containing 7) [SID363546556] gave GFP, % of control 62.1; viability (ATP), % of control 65.9; inactive.
For Armc7 (armadillo repeat containing 7) [SID363548312] the deposit lists GFP, % of control 86.7; viability (ATP), % of control 84.8; inactive.
Knock-down of Armc7 (armadillo repeat containing 7) [SID363560490] gave: GFP, % of control 126; viability (ATP), % of control 94.8; active.
With knock-down of Wnt1 (WNT family member 1) [SID363541923], the record shows GFP, % of control 57.3; viability (ATP), % of control 49.5; inactive.
Wnt1 (WNT family member 1) [SID363553515] scored GFP, % of control 93.7; viability (ATP), % of control 73.4; inactive.
Wnt1 (WNT family member 1) [SID363566839] scored GFP, % of control 106; viability (ATP), % of control 57.7; inactive.
Cd200r4 (CD200 receptor 4) [SID363544324] showed GFP, % of control 58.5; viability (ATP), % of control 79.3; inactive.
Knock-down of Cd200r4 (CD200 receptor 4) [SID363550652] resulted in: GFP, % of control 55.9; viability (ATP), % of control 88.8; inactive.
After knock-down of Cd200r4 (CD200 receptor 4) [SID363557201], the record shows GFP, % of control 56.5; viability (ATP), % of control 65.7; inactive.
Knock-down of Slc36a4 [SID363555050] came out at: GFP, % of control 49.2; viability (ATP), % of control 68.3; inactive.
With knock-down of Slc36a4 [SID363568497], the screen gave GFP, % of control 51.9; viability (ATP), % of control 65.5; inactive.
With knock-down of Slc36a4 [SID363586556] the results were GFP, % of control 68.5; viability (ATP), % of control 75.7; inactive.

2 entries already listed, ordered by “GFP, % of control”, lowest first:
Armc7 (armadillo repeat containing 7) [SID363546556] → GFP, % of control: 62.1; viability (ATP), % of control: 65.9; Outcome: inactive
Armc7 (armadillo repeat containing 7) [SID363548312] → GFP, % of control: 86.7; viability (ATP), % of control: 84.8; Outcome: inactive

The listing continues:
Arf1 (ARF GTPase 1) [SID363541440] scored GFP, % of control 58.1; viability (ATP), % of control 67.5; inactive.
After knock-down of Arf1 (ARF GTPase 1) [SID363556067], the screen gave GFP, % of control 54.7; viability (ATP), % of control 57.1; inactive.
Arf1 (ARF GTPase 1) [SID363566356] showed GFP, % of control 51.8; viability (ATP), % of control 74.7; inactive.
After knock-down of Ros1 (Ros1 proto-oncogene, receptor tyrosine kinase) [SID363570788], the screen gave GFP, % of control 86.2; viability (ATP), % of control 89.9; inactive.
Against Tnr (tenascin R) [SID363573363], the values are GFP, % of control 62.8; viability (ATP), % of control 86.6; inactive.
Depletion of Tnr (tenascin R) [SID363588602] resulted in: GFP, % of control 117; viability (ATP), % of control 112; inactive.
With knock-down of Tcf23 (transcription factor 23) [SID363540888] the results were GFP, % of control 104; viability (ATP), % of control 80.6; inactive.
With knock-down of Tcf23 (transcription factor 23) [SID363555515], the record shows GFP, % of control 74.2; viability (ATP), % of control 70.4; inactive.
Knock-down of Tcf23 (transcription factor 23) [SID363565804] resulted in: GFP, % of control 37.9; viability (ATP), % of control 63.8; inactive.
